Laboratory results as given in patent US9210928B2, “Plant development control composition” (Syngenta Crop Protection, LLC, priority 2008, dated 2015).
Some results were stated once for a whole list of compounds, not compound by compound.

Test system: excised Arabidopsis nodes
Assay: Axillary bud outgrowth assay in Arabidopsis stem sections
Assay type: in vivo
Conditions: 100 μM inhibitor, 1 μM NAA; Col-0; FIG. 5
Protocol: Axillary bud outgrowth assay in Arabidopsis stein sections—The assays were performed essentially as described (40) with the following modifications. Small Petri dishes (50 mm diameter, 20 mm depth) were filled with 10 ml of ATS (39) supplemented with 1% agar and 1% sucrose. Inhibitors and α-naphthalene acetic acid (NAA) were added to the agar before pouring to give 100 μM and 1 μM, respectively. Thus, when the central strip was cut out of the agar, both the apical and basal media contained both NAA and inhibitor. Any nodes in which the apical end had curled out of the media or which bud length was less than 2 mm at the end of the experiment were discounted. Measurement of the shoot length was performed every 24 hours. For each assay a logistic curve was fitted using Genstat (10th edition, VSN international) with the fitcurve directive and the lag phase was calculated by extrapolating the linear part of the curve and the initial plateau (see supplementary methods). The x value of where these two lines intersected represented the lag phase.
A logistic curve, y=A+C/(1+e^−B(t−m)), was fitted to the data for each shoot using GenStat (10th edition). The lag phase was then calculated using the equation m−(2/B) which effectively gave the t value (time) of the intercept of the two extrapolated lines from the linear part of the curve and the initial plateau.
Stimulation of shoot branching in Arabidopsis stem sections by application of inhibitor—Auxin inhibits the outgrowth of axillary buds in wild-type Arabidopsis plants. In the AtCCD7 and AtCCD8 null mutants (max3 and max4, respectively) the response to auxin is reduced, presumably due to a block in formation of an apocarotenoid hormone (recently shown (17,18) to be strigolactone or a related compound) that suppresses branching (19), and axillary buds extend earlier, leading to formation of side branches. An in vitro assay was previously developed in which the growth of axillary buds from isolated sections of Arabidopsis stem was used to assess max mutants (40). In such assays, it was reported that bud outgrowth of the max4-1 mutant (AtCCD8) was 2 days earlier than for wild-type (20) and a similar phenotype is expected of the highly branched max3-9 mutant (21). […] This earlier bud outgrowth was equivalent to that observed in the AtCCD7 null mutant max3-9 (FIG. 5), and indicates an inhibition of AtCCD7 and/or possibly AtCCD8 in this tissue. […] One possibility in this case is that F3 stimulated branching by inhibiting AtCCD8 (not tested in vitro or in E. coli) rather than AtCCD7.

Structure (SMILES)	effect on timing of bud outgrowth (in words)
COc1ccc(C(=O)N(O)Cc2ccccc2)cc1OC [Compound F3, N-benzyl-3,4-dimethoxybenzoyl hydroxamic acid]	significantly (P<0.05) advanced the timing of bud outgrowth
COc1ccc(CC(=O)N(O)Cc2ccccc2)cc1OC [Compound D5, N-benzyl-3,4-dimethoxyphenylacetyl hydroxamic acid]	significantly (P<0.05) advanced the timing of bud outgrowth
O=C(Cc1ccc(O)cc1)N(O)Cc1ccccc1 [Compound D1, N-benzyl-4-hydroxyphenylacetyl hydroxamic acid]	significantly (P<0.05) advanced the timing of bud outgrowth
O=C(Cc1ccc(O)c(O)c1)N(O)Cc1ccc(F)cc1 [Compound D3, N-(4-fluorobenzyl)-3,4-dihydroxyphenylacetyl hydroxamic acid]	significantly (P<0.05) advanced the timing of bud outgrowth
O=C(Cc1ccc(O)cc1)N(O)Cc1ccc(F)cc1 [Compound D2, N-(4-fluorobenzyl)-4-hydroxyphenylacetyl hydroxamic acid]	significantly (P<0.05) advanced the timing of bud outgrowth
COc1ccc(CC(=O)N(O)Cc2ccc(F)cc2)cc1OC [Compound D6, N-(4-fluorobenzyl)-3,4-dimethoxyphenylacetyl hydroxamic acid]	significantly (P<0.05) advanced the timing of bud outgrowth
